Test results published in publication PMC5117208.
Results are given in words; binding and its absence hold for the method and conditions named. Binding seen in cells or lysates may run through a third protein. Where a sequence is shown, tags or fusion partners need not be part of it.

Target: T1, HA–CSQ2 (hemagglutinin-tagged human calsequestrin 2) (human) (UniProt O14958)
T1 sequence: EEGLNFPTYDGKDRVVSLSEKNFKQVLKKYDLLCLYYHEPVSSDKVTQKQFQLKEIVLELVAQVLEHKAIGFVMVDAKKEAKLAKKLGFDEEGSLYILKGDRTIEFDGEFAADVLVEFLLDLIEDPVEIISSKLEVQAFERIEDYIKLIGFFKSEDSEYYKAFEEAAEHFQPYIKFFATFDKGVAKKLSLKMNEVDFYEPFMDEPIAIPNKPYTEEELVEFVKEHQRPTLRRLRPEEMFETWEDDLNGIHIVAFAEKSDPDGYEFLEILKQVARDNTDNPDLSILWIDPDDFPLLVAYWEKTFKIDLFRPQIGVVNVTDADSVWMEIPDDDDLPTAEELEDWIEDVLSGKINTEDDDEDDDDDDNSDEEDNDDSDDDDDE
Experiment: co-IP; HA–CSQ2 immunoprecipitated with anti-HA from CHAPS-solubilised lysates of co-transfected HEK293 cells; partner detected by immunoblot (Ab1093 or anti-Myc); non-immune rabbit IgG as control; residual micromolar Ca2+

binding, no binding:
Myc-tagged BT1B2 (human RyR2 C-terminal fragment) (domain or fragment)
Myc-tagged BT1D (human RyR2 C-terminal fragment) (domain or fragment)
Myc-tagged BT9 (human RyR2 C-terminal fragment) (domain or fragment)
